Results are given in words; binding and its absence hold for the method and conditions named. In cells and extracts the contact can be indirect. Some entries that bind do so weakly or less than the wild type.
What was measured:
[1] = biological target: N-myc downstream-regulated gene 1 (NDRG1) (mouse (endogenous in corpus callosum)) (UniProt Q62433); test: co-IP; immunoprecipitation with an NDRG1 antibody from corpus callosum lysates of normal mice and of mice after repeated WIRS; western blot for β-catenin, N-cadherin and α-catenin
[2] = biological target: serum glucocorticoid regulated kinase (SGK1) (mouse (endogenous in corpus callosum)) (UniProt Q9WVC6); test: co-IP; immunoprecipitates prepared with a SGK1 antibody from corpus callosum lysates of control mice and of mice after repeated WIRS (chronic stress); immunoblotted with a NDRG1 antibody
[3] = biological target: NDRG1-S330D (UniProt Q92597); test: co-IP; immunoprecipitation and western blot from SK-N-SH cells overexpressing NDRG1-S330D (NDRG1-S330A and untransfected cells as controls)

Protein sequences, listed by entry. Tags and fused reporters are not part of them. Lines headed by an entry give the natural chain unless they say otherwise; changes in a name come on top. Residues count along the entry.
UniProt Q62433: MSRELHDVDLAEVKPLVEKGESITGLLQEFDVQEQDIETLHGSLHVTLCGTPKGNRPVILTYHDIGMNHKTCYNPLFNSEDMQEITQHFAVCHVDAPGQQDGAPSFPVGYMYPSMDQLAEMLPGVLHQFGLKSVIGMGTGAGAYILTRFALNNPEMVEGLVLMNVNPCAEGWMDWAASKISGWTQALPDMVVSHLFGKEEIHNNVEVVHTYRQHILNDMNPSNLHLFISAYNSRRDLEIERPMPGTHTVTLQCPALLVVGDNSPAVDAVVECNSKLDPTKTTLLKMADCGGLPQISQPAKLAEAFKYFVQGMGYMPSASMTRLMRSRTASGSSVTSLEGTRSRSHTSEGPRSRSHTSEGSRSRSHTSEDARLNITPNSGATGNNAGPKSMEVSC
UniProt Q9WVC6: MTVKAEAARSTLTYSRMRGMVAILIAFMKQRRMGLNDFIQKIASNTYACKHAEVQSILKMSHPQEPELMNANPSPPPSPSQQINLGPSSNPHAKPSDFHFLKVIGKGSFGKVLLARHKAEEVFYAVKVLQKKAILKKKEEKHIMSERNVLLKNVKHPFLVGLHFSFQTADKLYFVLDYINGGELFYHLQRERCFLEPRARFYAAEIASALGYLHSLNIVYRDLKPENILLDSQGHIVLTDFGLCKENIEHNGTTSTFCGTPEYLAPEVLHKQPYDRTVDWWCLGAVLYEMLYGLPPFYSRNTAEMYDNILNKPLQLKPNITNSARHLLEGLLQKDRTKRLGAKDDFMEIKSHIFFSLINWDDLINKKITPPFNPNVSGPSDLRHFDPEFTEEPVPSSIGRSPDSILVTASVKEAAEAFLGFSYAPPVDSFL
UniProt Q92597: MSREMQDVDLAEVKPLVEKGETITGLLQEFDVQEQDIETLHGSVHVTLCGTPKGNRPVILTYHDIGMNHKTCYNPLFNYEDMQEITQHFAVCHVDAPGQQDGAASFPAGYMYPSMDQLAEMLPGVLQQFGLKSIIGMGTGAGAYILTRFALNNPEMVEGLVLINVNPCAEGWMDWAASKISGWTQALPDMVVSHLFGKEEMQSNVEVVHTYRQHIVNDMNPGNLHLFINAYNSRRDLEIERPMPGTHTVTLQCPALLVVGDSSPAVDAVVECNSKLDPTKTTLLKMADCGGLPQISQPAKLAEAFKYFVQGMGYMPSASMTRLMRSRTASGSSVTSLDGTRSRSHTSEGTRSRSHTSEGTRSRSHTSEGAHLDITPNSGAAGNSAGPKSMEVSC
UniProt P15116, residues 160-906: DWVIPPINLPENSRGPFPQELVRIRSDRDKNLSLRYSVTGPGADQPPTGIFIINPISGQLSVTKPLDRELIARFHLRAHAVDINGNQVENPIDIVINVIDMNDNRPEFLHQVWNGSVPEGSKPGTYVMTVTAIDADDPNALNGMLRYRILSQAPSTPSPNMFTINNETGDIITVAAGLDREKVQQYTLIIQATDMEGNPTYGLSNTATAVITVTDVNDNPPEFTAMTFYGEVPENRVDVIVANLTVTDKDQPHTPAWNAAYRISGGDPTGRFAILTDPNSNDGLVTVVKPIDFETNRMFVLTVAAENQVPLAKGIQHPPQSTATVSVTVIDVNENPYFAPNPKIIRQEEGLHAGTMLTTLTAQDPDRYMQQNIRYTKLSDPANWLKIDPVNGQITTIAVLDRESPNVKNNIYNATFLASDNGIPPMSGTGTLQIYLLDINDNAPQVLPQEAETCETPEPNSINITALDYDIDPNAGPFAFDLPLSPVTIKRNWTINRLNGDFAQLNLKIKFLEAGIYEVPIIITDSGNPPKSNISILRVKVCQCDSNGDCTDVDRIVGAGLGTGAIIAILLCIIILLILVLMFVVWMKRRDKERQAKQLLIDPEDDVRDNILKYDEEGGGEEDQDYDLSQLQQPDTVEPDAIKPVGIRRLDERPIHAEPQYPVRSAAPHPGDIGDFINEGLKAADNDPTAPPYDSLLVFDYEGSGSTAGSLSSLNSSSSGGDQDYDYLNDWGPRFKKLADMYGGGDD
UniProt P35222: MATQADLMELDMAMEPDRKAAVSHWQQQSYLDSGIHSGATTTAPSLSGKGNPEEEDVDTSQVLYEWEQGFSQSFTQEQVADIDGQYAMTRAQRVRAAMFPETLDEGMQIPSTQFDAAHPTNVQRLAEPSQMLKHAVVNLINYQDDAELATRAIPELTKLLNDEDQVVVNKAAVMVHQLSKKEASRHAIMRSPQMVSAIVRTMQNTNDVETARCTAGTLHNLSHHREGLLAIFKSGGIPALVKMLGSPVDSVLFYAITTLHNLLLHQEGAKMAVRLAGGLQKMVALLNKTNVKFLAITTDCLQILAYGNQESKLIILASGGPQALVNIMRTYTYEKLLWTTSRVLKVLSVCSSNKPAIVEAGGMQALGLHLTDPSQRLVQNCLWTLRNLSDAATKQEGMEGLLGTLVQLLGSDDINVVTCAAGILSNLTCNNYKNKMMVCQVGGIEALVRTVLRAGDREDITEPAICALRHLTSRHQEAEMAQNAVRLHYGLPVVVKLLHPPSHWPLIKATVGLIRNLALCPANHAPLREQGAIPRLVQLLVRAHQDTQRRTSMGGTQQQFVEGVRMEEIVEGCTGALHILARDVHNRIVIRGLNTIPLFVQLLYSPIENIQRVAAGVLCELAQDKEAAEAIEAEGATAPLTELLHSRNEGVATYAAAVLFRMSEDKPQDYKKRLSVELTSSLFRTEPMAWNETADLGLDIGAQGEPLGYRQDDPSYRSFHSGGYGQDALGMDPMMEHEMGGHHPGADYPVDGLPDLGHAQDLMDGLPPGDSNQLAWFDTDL
UniProt Q02248: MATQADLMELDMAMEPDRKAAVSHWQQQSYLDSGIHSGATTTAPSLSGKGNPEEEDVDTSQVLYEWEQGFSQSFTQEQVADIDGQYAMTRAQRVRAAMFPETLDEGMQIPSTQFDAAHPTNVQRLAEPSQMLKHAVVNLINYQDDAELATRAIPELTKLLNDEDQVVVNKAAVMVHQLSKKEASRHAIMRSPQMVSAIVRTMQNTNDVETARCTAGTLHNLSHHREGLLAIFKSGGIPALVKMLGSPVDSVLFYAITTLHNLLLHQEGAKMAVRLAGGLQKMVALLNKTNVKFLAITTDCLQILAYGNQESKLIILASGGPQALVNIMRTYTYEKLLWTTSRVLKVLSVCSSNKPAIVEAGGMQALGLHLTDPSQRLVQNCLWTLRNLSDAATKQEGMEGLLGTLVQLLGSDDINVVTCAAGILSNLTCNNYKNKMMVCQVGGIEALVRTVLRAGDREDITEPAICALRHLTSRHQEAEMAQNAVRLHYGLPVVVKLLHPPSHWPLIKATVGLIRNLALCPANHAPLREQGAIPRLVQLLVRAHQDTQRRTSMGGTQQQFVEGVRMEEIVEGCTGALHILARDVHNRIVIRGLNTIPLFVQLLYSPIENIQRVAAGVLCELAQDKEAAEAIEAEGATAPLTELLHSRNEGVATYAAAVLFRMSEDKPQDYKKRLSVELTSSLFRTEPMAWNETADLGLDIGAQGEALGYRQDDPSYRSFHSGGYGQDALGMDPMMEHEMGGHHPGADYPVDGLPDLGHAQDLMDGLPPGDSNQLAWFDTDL

binding [1] | Substance | other results
no binding | N-cadherin (from UniProt P15116 160-906) | –
– | N-myc downstream-regulated gene 1 (NDRG1) (from UniProt Q62433 1-394) | binding [2]: binds
– | β-catenin (SK-N-SH cells) (from UniProt P35222 1-781) | binding [3]: binds
binds | β-catenin (from UniProt Q02248 1-781) | –

— paper PMC3104997
